The results in this text go back to patent US20170275630.

For part of these data: Results from cells or extracts need not show a direct contact. For part of these data: No signal at the amounts used counts as a negative. For part of these data: The comparison behind a weaker result is the experiment's own reference, which may not be listed here.

For data set [1], the target named is HGF receptor (c-Met, MET) (UniProt P08581). In words: activity in cells. As to conditions: protein in cells, folded or branched DNA.
Data set [2] has the same target. In words: flow cytometry. As to conditions: SNU-5 cells, 21 C, 15 min, protein on the cell surface. On the technique in general: A flow cytometer gives signals particle by particle.

“ATCAGGCTGGATGGTAGCTCGGTCGGGGTGGGTGGGTTGGCAAGTCTGATTTTTTTTTTTCGTGTCACGGATGGTAGCTCGGTCGGGGTGGGTGGGTTGGCAGTGACACG [SL1 dimer_10 (ss10)]”: in data set [1] (variant of SL1 dimer_5, dose not given here), the “functional effect of the aptamer” value is recorded as “active”.

As for “TAGTCTGAACGGTTGGGTGGGTGGGGCTGGCTCGATGGTAGGTCGGACTA [Stem-Loop1 reverse sequence]”, the binding result in data set [2] (100 nM, same as untreated cells, label: FITC, single-stranded DNA, variant of SL1 (Stem-Loop1)) is reported as “no binding”. As for “ATCAGGCTGGATGGTAGCTCGGTCGGGGTGGGTGGGTTGGCAAGTCTGAT [SL1 (Stem-Loop1)]”, the “functional effect of the aptamer” value in data set [1] (dose-dependent inhibition of c-Met phosphorylation by 110 pM HGF, A549, SL1 1-1000 nM, 1 uM also inhibits SUIT-2 migration) is listed as “active”. The binding result in data set [2] (signal rises from 2.5 nM, almost no change at 1000 nM, label: FITC (binding assays), folded or branched DNA) was “binds”. In the case of “CGATCAGTCTAGCATCCATCTATCAGGCTGGATGGTAGCTCGGTCGGGGTGGGTGGGTTGGCAAGTCTGAT / GATGGATGCTAGACTGATCGTATCAGGCTGGATGGTAGCTCGGTCGGGGTGGGTGGGTTGGCAAGTCTGAT [SL1_A/SL1_B dimer]”, the “functional effect of the aptamer” value in data set [1] (induces c-Met phosphorylation in A549, lost when Comp_A/Comp_B block dimer formation, variant of SL1 (Stem-Loop1), dose not given here) is recorded as “active”. Consider “GGATGGTAGCTCGGTCGGGGTGGGTGGGTTGG [G-loop]”, for which, in data set [2] (100 nM, above cell control, below SL1, label: FITC, folded or branched DNA, variant of SL1 (Stem-Loop1)), the binding result is reported as “binds more weakly”.
